# Data taken from PubChem BioAssay AID248 (DTP/NCI, 2004).
# The list is a part of this screen's results and no random one: it gathers tests that were run many times, whatever their T/C, doses with no T/C, and many T/C values between a quarter and a half above the control. Further doses and runs are listed elsewhere. T/C: endpoint of the treated group in % of that of the vehicle group. Some entries give survivors of the animals treated and no T/C: the source files T/C as zero there, which appears to mark a toxic dose or a test without result, not a measured value. Some survivor counts are full or nearly so, which does not show that the dose was tolerated: the source hardly ever lists a survival T/C far under the control, and the zero likely stands for such cases as well. Counts of survivors are from the toxicity check (mostly the fifth day) where no day follows; animals may have died later. Schedule codes are those of the source, read here as Q, the interval in days (D) or hours (H), X, the number of doses. Some entries were tested several times; the values are given in rising order. For survival time, the PubChem record calls one and a half times the control and up active, and a quarter to a half above the control has no call in these data; cut-offs in other NCI protocols can differ. Counts like (3×) stand for listed records that agree. Some schedule codes hold Z or #, which are not explained here. Some T/C values are followed by the survivors on the day toxicity was checked, most often the fifth; without a count, all were alive then.
# Test system: L1210 leukemia ip in BDF1 mice, survival T/C
# Experiment: NCI In Vivo Anticancer Drug Screen. Data for tumor model L1210 Leukemia (intraperitoneal) in B6D2F1 (BDF1) mice
# Settings: higher T/C = longer survival
# [1] = T/C endpoint: mean survival time, dose: 2400.0 mg/kg/injection, schedule: Q01DX009 (ip), vehicle: saline
smiles,measurement,setting,value
C[C@H](N)C(=O)N[C@@H]1[C@H]2C(=C(O)C[C@@H](O)[C@@H]2O)C(=O)O[C@@H]1C,T/C,"T/C endpoint: mean survival time, dose: 75.0 mg/kg/injection, schedule: Q01DX010 (ip), vehicle: saline",127 % of control [5 of 6 alive]
same,T/C,"T/C endpoint: mean survival time, dose: 100.0 mg/kg/injection, schedule: Q01DX Z (ip), vehicle: saline",127 % of control
same,T/C,"T/C endpoint: mean survival time, dose: 100.0 mg/kg/injection, schedule: Q#A X Z (ip), vehicle: saline",132 % of control
same,T/C,"T/C endpoint: mean survival time, dose: 140.0 mg/kg/injection, schedule: Q01DX015 (ip), vehicle: saline",130 % of control
same,T/C,"T/C endpoint: mean survival time, dose: 150.0 mg/kg/injection, schedule: Q01DX009 (ip), vehicle: saline",135 % of control
same,T/C,"T/C endpoint: mean survival time, dose: 150.0 mg/kg/injection, schedule: Q01DX010 (ip), vehicle: saline","121, 123, 125, 129, 130, 133 % of control"
same,T/C,"T/C endpoint: mean survival time, dose: 200.0 mg/kg/injection, schedule: Q01DX Z (ip), vehicle: saline",139 % of control
same,T/C,"T/C endpoint: mean survival time, dose: 211.0 mg/kg/injection, schedule: Q01DX015 (ip), vehicle: saline",136 and 137 % of control
same,T/C,"T/C endpoint: mean survival time, dose: 222.0 mg/kg/injection, schedule: Q02DX004 (ip), vehicle: saline",125 % of control
same,T/C,"T/C endpoint: mean survival time, dose: 250.0 mg/kg/injection, schedule: Q01DX Z (ip), vehicle: saline",125 % of control
same,T/C,"T/C endpoint: mean survival time, dose: 300.0 mg/kg/injection, schedule: Q01DX009 (ip), vehicle: saline, evaluated on day 30","131, 135, 140, 142 % of control"
same,T/C,"T/C endpoint: mean survival time, dose: 300.0 mg/kg/injection, schedule: Q01DX009 (ip), vehicle: saline, evaluated on day 60",139 % of control
same,T/C,"T/C endpoint: mean survival time, dose: 300.0 mg/kg/injection, schedule: Q01DX010 (ip), vehicle: saline","132 (2×), 140, 142 % of control"
same,T/C,"T/C endpoint: mean survival time, dose: 300.0 mg/kg/injection, schedule: Q01DX015 (ip), vehicle: saline",142 % of control
same,T/C,"T/C endpoint: mean survival time, dose: 300.0 mg/kg/injection, schedule: Q01DX Z (ip), vehicle: saline",143 % of control
same,T/C,"T/C endpoint: mean survival time, dose: 300.0 mg/kg/injection, schedule: Q03DX Z (ip), vehicle: saline",125 % of control
same,T/C,"T/C endpoint: mean survival time, dose: 400.0 mg/kg/injection, schedule: Q01DX Z (im), vehicle: saline",145 % of control
same,T/C,"T/C endpoint: mean survival time, dose: 400.0 mg/kg/injection, schedule: Q01DX Z (sc), vehicle: saline",137 % of control
same,T/C,"T/C endpoint: mean survival time, dose: 400.0 mg/kg/injection, schedule: Q#A X Z (ip), vehicle: saline",141 % of control
same,T/C,"T/C endpoint: mean survival time, dose: 500.0 mg/kg/injection, schedule: Q01DX Z (ip), vehicle: saline",145 % of control
same,T/C,"T/C endpoint: mean survival time, dose: 500.0 mg/kg/injection, schedule: Q02DX004 (ip), vehicle: saline",126 % of control
same,T/C,"T/C endpoint: mean survival time, dose: 600.0 mg/kg/injection, schedule: Q01DX009 (ip), vehicle: saline, evaluated on day 30","131, 148, 151 % of control (2×)"
same,T/C,"T/C endpoint: mean survival time, dose: 600.0 mg/kg/injection, schedule: Q01DX009 (ip), vehicle: saline, evaluated on day 60",157 % of control
same,T/C,"T/C endpoint: mean survival time, dose: 600.0 mg/kg/injection, schedule: Q01DX010 (ip), vehicle: saline","159, 162, 166, 181 % of control"
same,T/C,"T/C endpoint: mean survival time, dose: 600.0 mg/kg/injection, schedule: Q03DX Z (ip), vehicle: saline",135 % of control
same,T/C,"T/C endpoint: mean survival time, dose: 750.0 mg/kg/injection, schedule: Q02DX004 (ip), vehicle: saline",129 % of control
same,survivor count,"T/C endpoint: mean survival time, dose: 800.0 mg/kg/injection, schedule: Q01DX006 (iv), vehicle: saline",2 of 6
same,T/C,"T/C endpoint: mean survival time, dose: 800.0 mg/kg/injection, schedule: Q## X032 (ip), vehicle: saline",126 % of control
same,T/C,"T/C endpoint: mean survival time, dose: 1000.0 mg/kg/injection, schedule: Q01DX Z (ip), vehicle: saline",145 % of control
same,T/C,"T/C endpoint: mean survival time, dose: 1080.0 mg/kg/injection, schedule: Q01DX015 (ip), vehicle: saline",135 % of control
same,T/C,"T/C endpoint: mean survival time, dose: 1125.0 mg/kg/injection, schedule: Q02DX004 (ip), vehicle: saline",146 % of control
same,T/C,"T/C endpoint: mean survival time, dose: 1200.0 mg/kg/injection, schedule: Q01DX005 (ip), vehicle: saline",127 % of control
same,T/C,"T/C endpoint: mean survival time, dose: 1200.0 mg/kg/injection, schedule: Q01DX009 (ip), vehicle: saline, evaluated on day 30","142, 144, 162, 171 % of control"
same,T/C,"T/C endpoint: mean survival time, dose: 1200.0 mg/kg/injection, schedule: Q01DX009 (ip), vehicle: saline, evaluated on day 60",171 % of control
same,T/C,"T/C endpoint: mean survival time, dose: 1200.0 mg/kg/injection, schedule: Q01DX009 (sc), vehicle: saline",127 % of control [9 of 10 alive]
same,T/C,"T/C endpoint: mean survival time, dose: 1200.0 mg/kg/injection, schedule: Q01DX010 (ip), vehicle: saline","93, 131, 137, 159 % of control"
same,T/C,"T/C endpoint: mean survival time, dose: 1200.0 mg/kg/injection, schedule: Q03DX Z (ip), vehicle: saline",143 % of control [5 of 6 alive]
same,T/C,"T/C endpoint: mean survival time, dose: 1200.0 mg/kg/injection, schedule: Q03HX024 (ip), vehicle: saline",134 % of control
same,T/C,"T/C endpoint: mean survival time, dose: 1200.0 mg/kg/injection, schedule: Q04DX003 (ip), vehicle: saline",130 % of control
same,T/C,"T/C endpoint: mean survival time, dose: 1200.0 mg/kg/injection, schedule: Q08DX002 (ip), vehicle: saline",125 % of control
same,survivor count,"T/C endpoint: mean survival time, dose: 1600.0 mg/kg/injection, schedule: Q01DX006 (iv), vehicle: saline",2 of 6
same,T/C,"T/C endpoint: mean survival time, dose: 1600.0 mg/kg/injection, schedule: Q01DX Z (ip), vehicle: saline",129 % of control
same,T/C,"T/C endpoint: mean survival time, dose: 1600.0 mg/kg/injection, schedule: Q01DX Z (sc), vehicle: saline",130 % of control
same,T/C,"T/C endpoint: mean survival time, dose: 1800.0 mg/kg/injection, schedule: Q## X032 (ip), vehicle: saline",125 and 129 % of control
same,T/C,"T/C endpoint: mean survival time, dose: 2000.0 mg/kg/injection, schedule: Q## X004 (ip), vehicle: saline",139 % of control
same,survivor count,"T/C endpoint: mean survival time, dose: 2237.0 mg/kg/injection, schedule: Q01DX015 (ip), vehicle: carboxymethylcellulose (CMC)",5 of 8
same,survivor count,"T/C endpoint: mean survival time, dose: 2400.0 mg/kg/injection, schedule: Q01DX005 (ip), vehicle: saline",3 of 10
same,T/C,[1],137 % of control [5 of 6 alive]
same,survivor count,[1],"1 of 6, 3 of 6, 5 of 10, 4 of 6"
same,survivor count,"T/C endpoint: mean survival time, dose: 2400.0 mg/kg/injection, schedule: Q01DX009 (sc), vehicle: saline",10 of 10
same,survivor count,"T/C endpoint: mean survival time, dose: 2400.0 mg/kg/injection, schedule: Q01DX010 (ip), vehicle: saline",0 of 6 and 2 of 6
same,T/C,"T/C endpoint: mean survival time, dose: 2400.0 mg/kg/injection, schedule: Q03DX Z (ip), vehicle: saline",141 % of control
same,T/C,"T/C endpoint: mean survival time, dose: 2400.0 mg/kg/injection, schedule: Q03HX024 (ip), vehicle: saline",145 % of control
same,T/C,"T/C endpoint: mean survival time, dose: 2400.0 mg/kg/injection, schedule: Q04DX003 (ip), vehicle: saline",139 % of control
same,T/C,"T/C endpoint: mean survival time, dose: 2696.0 mg/kg/injection, schedule: Q## X032 (ip), vehicle: saline",131 % of control
same,survivor count,"T/C endpoint: mean survival time, dose: 2800.0 mg/kg/injection, schedule: Q01DX001 (ip), vehicle: saline",3 of 6
same,T/C,"T/C endpoint: mean survival time, dose: 3082.0 mg/kg/injection, schedule: Q01DX001 (ip), vehicle: saline",125 % of control
same,survivor count,"T/C endpoint: mean survival time, dose: 3696.0 mg/kg/injection, schedule: Q01DX001 (ip), vehicle: saline",4 of 10 and 2 of 4
same,T/C,"T/C endpoint: mean survival time, dose: 4000.0 mg/kg/injection, schedule: Q## X032 (ip), vehicle: saline",139 % of control
same,survivor count,"T/C endpoint: mean survival time, dose: 4500.0 mg/kg/injection, schedule: Q01DX001 (ip), vehicle: saline",0 of 10
same,survivor count,"T/C endpoint: mean survival time, dose: 4600.0 mg/kg/injection, schedule: Q01DX001 (ip), vehicle: saline",0 of 10
same,survivor count,"T/C endpoint: mean survival time, dose: 4800.0 mg/kg/injection, schedule: Q01DX001 (sc), vehicle: saline",5 of 10
same,survivor count,"T/C endpoint: mean survival time, dose: 6750.0 mg/kg/injection, schedule: Q01DX001 (ip), vehicle: saline",0 of 10
same,T/C,"T/C endpoint: median survival time, dose: 150.0 mg/kg/injection, schedule: Q01DX009 (ip), vehicle: saline",130 % of control
same,T/C,"T/C endpoint: median survival time, dose: 300.0 mg/kg/injection, schedule: Q01DX009 (ip), vehicle: saline",148 % of control
same,T/C,"T/C endpoint: median survival time, dose: 1064.0 mg/kg/injection, schedule: Q04DX003 (ip), vehicle: saline",126 % of control
same,survivor count,"T/C endpoint: median survival time, dose: 2400.0 mg/kg/injection, schedule: Q01DX009 (ip), vehicle: saline",4 of 6
same,T/C,"T/C endpoint: median survival time, dose: 2428.0 mg/kg/injection, schedule: Q04DX003 (ip), vehicle: saline",136 % of control
COc1cc2cc[n+](C)cc2cc1OC,survivor count,"T/C endpoint: mean survival time, dose: 200.0 mg/kg/injection, schedule: Q01DX009 (ip), vehicle: saline",0 of 6
same,survivor count,"T/C endpoint: mean survival time, dose: 400.0 mg/kg/injection, schedule: Q04DX003 (ip), vehicle: saline",2 of 6
NC(Cc1ccc(N(CCCl)Cc2ccccc2)cc1)C(=O)O (configuration not stated),survivor count,"T/C endpoint: mean survival time, dose: 50.0 mg/kg/injection, schedule: Q01DX009 (ip), vehicle: distilled water + Tween-80",10 of 10
O=C1OC(c2ccccc2)=C/C1=C/c1ccccc1O,survivor count,"T/C endpoint: mean survival time, dose: 400.0 mg/kg/injection, schedule: Q01DX009 (ip), vehicle: saline with Tween-80",3 of 6
